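Luminescence from an EWS-FLI1 target-promoter (NR0B1) reporter, set against a CMV-promoter reporter, two days after silencing single genes in TC32 Ewing sarcoma cells.
Each siRNA was applied at 20 nM.
A z-score of the log NR0B1-over-CMV signal, less the median of siRNAs with the same seed; more negative means a stronger specific loss of the NR0B1 reporter.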

The strongest results of the screen are mostly left out here.
Sequences are the guide (antisense) strand, without overhang.

Result for UUAGUUGAUGCAGGGAAUC against SQLE was seed-corrected z-score 0.3653.
Result for UUUGUCACUAUCGUCUUCC against MYT1L was seed-corrected z-score -1.938.
Result for AUAACUUAAUUCAUCUUGC against SACM1L was seed-corrected z-score 1.417.
Result for UGGAUUGUCAGGACCUUUG against PARP16 was seed-corrected z-score -0.3394.
Result for UAUUAGUCGAUUCAUACUC against METTL10 was seed-corrected z-score -0.07697.
Result for UCAUUGAGCUCCAUCAUCU against GFAP was seed-corrected z-score 0.4979.
Result for UUUGAUUUUCACGAAGACU against DACT3 was seed-corrected z-score 0.3115.
Result for UAAAGAAGACGAUUCGCUU against MAF1 was seed-corrected z-score 0.8729.
Result for UUUCUUAAACUCUUUCUGG against C21orf58 was seed-corrected z-score 0.8593.
Result for UUUCGACAGAUUUUACUUC against EEF1A1 was seed-corrected z-score -1.152.
Result for UUUUUGCUACCAUAUUGCC against XG was seed-corrected z-score 0.4195.
Result for UGAAGUUCAGUAGCUUUCG against CNOT6L was seed-corrected z-score -0.4929.
Result for UCAGCUAAACGAUUUCGGC against MGAM2 was seed-corrected z-score 0.2117.
Result for AUAGGUCUCAUAACGGCUU against PSD2 was seed-corrected z-score -1.273.
Result for AACCUUCACGAUGUCAUCC against RABL6 was seed-corrected z-score -0.4244.
Result for UUCAGUUGCUCGGACAUCU against EXOSC1 was seed-corrected z-score -0.3269.
Result for AUCGGUUCAAGAGACCUCC against MARS2 was seed-corrected z-score 0.1293.
Result for UUUUAGAUACUGAUGAUCU against GOLGA6L7P was seed-corrected z-score -0.9743.
Result for UUUGUGCAUUCUGAGAUUC against DDB2 was seed-corrected z-score -0.1114.
Result for UUCUCGAAGCGUGAUAGCC against AP1M1 was seed-corrected z-score -0.4195.
Result for AGAGCUACUUGCUUUUCCC against SSX6 was seed-corrected z-score -0.7976.
Result for AAAUAUUUCCGUUGUCUAC against RFESD was seed-corrected z-score 1.422.
Result for UAAAAGGCGAGGAUCAUUA against CMTM7 was seed-corrected z-score 0.7567.
Result for AACUGUACCAGCCUCGUGC against MFNG was seed-corrected z-score -0.5245.
Result for UUUCUCUCUGUGGAGGUGC against MCAM was seed-corrected z-score 0.3761.
Result for UUUUAAACGAGGAGUAAAG against LOC644058 was seed-corrected z-score -0.7142.
Result for UUCGUUACAAGCUAGGUGG against EP400 was seed-corrected z-score -1.611.
Result for UCAAUGAUUGGAUAAGCUA against LOC442064 was seed-corrected z-score -0.9948.
Result for UUCGUUUCAAGAGAGGUAC against TICRR was seed-corrected z-score 1.806.
Result for UUCCGUUCUGGUCUAACGG against MGA was seed-corrected z-score -0.09663.
Result for UACGAUGAAAGUCUUUUGG against SCN5A was seed-corrected z-score 0.01442.
Result for UACUGUAUCCCUUUUAAGC against SMIM15 was seed-corrected z-score 0.4051.
Result for UAGGGCUGAGGGAAUAUGC against SH2B3 was seed-corrected z-score 0.4774.
Result for UCAGGGACCAAUGCAACAG against MAVS was seed-corrected z-score -0.119.
Result for AUUGUGUUAAUUAGAAAUC against POLR1D was seed-corrected z-score 0.1462.
Result for UUCAGCACGUCGUCUAUCC against CAMK2N2 was seed-corrected z-score 1.252.
Result for UUAGGGUCACGGAAGUUAC against TDRD6 was seed-corrected z-score -0.3537.
Result for AUAUGGAUCCUGGGUUUGG against HMCN2 was seed-corrected z-score 0.1318.
Result for UCUGAUAUAGGUAUGCAUC against DIRC2 was seed-corrected z-score -0.4147.
Result for UAACUGAUCGCAGAAGACC against S100A3 was seed-corrected z-score 0.3384.
Result for UUGUUGAUUAAGAGAUGCG against DZIP3 was seed-corrected z-score -0.4229.
Result for UCCGUAAAAAUUACUCCUC against UFL1 was seed-corrected z-score 1.156.
Result for UUUCUUCAAACUAAUGCAG against MAPRE2 was seed-corrected z-score -0.0833.
Result for UUGUAUUCCAGAAAUAGCG against DYNLL1P7 was seed-corrected z-score -1.522.

The results are deposited in PubChem (AID1159506; NCATS, 2015).